Reference: patent EP3878534A1, “EXTRACTION AND BACK-EXTRACTION OF HYDROPHOBIC COMPOUNDS USING DEEP EUTECTIC SOLVENT WITH TUNEABLE HYDROPHOBICITY” (Wageningen Universiteit, priority 2020, dated 2021)

Assay: Back-extraction experiment from DES imidazole/hexanoic acid by addition of imidazole (GC-FID)

Structure (SMILES): CCCCCCCCCCCC [dodecane]
- back-extraction efficiency (> 60 mol% imidazole, from DES imidazole/hexanoic acid): 97%
- back-extracted (summary in description, imidazole content not stated): ~100%
